Laboratory results taken from paper PMC12040169 (PLOS Biology, 2025).
The list shows a part of the results.

Test system: T1, CTL2-GFP (C. trachomatis L2/434/Bu, GFP-expressing)
T1 construct: L2/434/Bu, GFP-expressing
Set-up: species or system HeLa; Intracellular C. trachomatis growth in HeLa cells, bulk GFP fluorescence relative to DMSO
Conditions: bulk GFP, single well; 28.5 h, 10 µM; inhibitor

SMILES | % of control remaining
O=C(Cc1csc2ccccc12)Nc1cnc(-c2ccc(F)cc2)c(-c2ccoc2)n1 [CBK037102] | 116.193%
CC(C)CCNC(=O)c1cccc(-n2c(=S)[nH]c3cc(Cl)ccc3c2=O)c1 [CBK294444] | 123.823%
Cc1nn(C)c(C)c1NC(=O)COc1ccccc1C#N [CBK305850] | 104.749%
COc1ccc(C(NC(=O)[C@H]2CCCN2C(=O)c2c(-c3ccccc3)noc2C)c2ccccc2C)cn1 (stereo partly drawn) [CBK075055] | 107.548%
Cc1cc(C(C)(C)C)ccc1OCCNCCN [CBK265097G] | 128.747%
C/C(CS(=O)(=O)c1ccccc1)=N/NC(N)=S [CBK026285] | 124.734%
COc1ccc(Cn2nc(NC(=O)Nc3c(C)noc3C)c3ccccc32)cc1 [CBK048528] | 107.968%
CCc1nc(CNC(=O)c2cc3cc(F)ccc3n2C)no1 [CBK281414] | 113.525%
OCc1ccccc1-c1cncc(N2CCN(c3ccncc3)CC2)n1 [CBK065208] | 143.751%
Cc1oc(-c2ccccc2)cc1C(=O)NCc1ccc(OC2CCNCC2)cc1 [CBK038915T] | 88.4325%
CN(C)c1ccc(C=Nc2ccc(NC(=O)CCC(=O)O)cc2)cc1 [CBK296091] | 144.21%
Clc1ccc(CN2CCC(NCCCn3cccn3)CC2)cc1 [CBK304004] | 128.52%
CCCc1n[nH]c(-c2c(F)cccc2F)c1C(=O)OCC [CBK113546] | 96.7047%
Cc1ccc(-c2nnc(COC(=O)c3c4c(nc5ccccc35)CCCC4)o2)cc1 [CBK269728] | 100.679%
COc1cccc(CCC(=O)Nc2cnc(-c3cccc(C(F)(F)F)c3)c(-c3cccnc3)n2)c1 [CBK036835] | 116.003%
CC(NS(=O)(=O)c1cccc2c(S(=O)(=O)NC(C)c3ccccc3)cccc12)c1ccccc1 (stereo not drawn) [CBK267717] | 138.182%
Cc1ncccc1-c1cc2cccnc2n1CCCNC(=O)C1CC1 [CBK282687] | 107.493%
CCOC(=O)c1sc2nc(N3CCOCC3)c3c(c2c1N)CCCC3 [CBK131870] | 83.3846%
O=C(Nc1ccc2c(c1)OCCO2)c1cc(S(=O)(=O)N2CCCCC2)c(Cl)cc1Cl [CBK265790] | 187.865%
COC(=O)c1ccccc1NC(=O)c1ccc(-n2cnnn2)cc1 [CBK058360] | 113.885%
Cn1nc(CC(=O)Nc2ccc(OC(=O)c3ccccc3)cc2)c2ccccc2c1=O [CBK264057] | 125.232%

Quoted at random: three compounds from above, in no set order.
SMILES | % of control remaining
C/C(CS(=O)(=O)c1ccccc1)=N/NC(N)=S [CBK026285] | 124.734%
CCc1nc(CNC(=O)c2cc3cc(F)ccc3n2C)no1 [CBK281414] | 113.525%
CCCc1n[nH]c(-c2c(F)cccc2F)c1C(=O)OCC [CBK113546] | 96.7047%

(next part)

SMILES | % of control remaining
CC1CCCCN1C(=O)CCn1c(-c2ccncc2)cc2cccnc21 (stereo not drawn) [CBK282689] | 120.763%
CC(C)c1cc2cc3ccc(=O)oc3cc2o1 [CBK033944] | 100%
CCN1CC2(CCCN(Cc3nnc(-c4cccnc4)o3)C2)CCC1=O (stereo not drawn) [CBK306881] | 147.99%
Cc1nn(Cc2ccc(Cl)cc2)c(C)c1NC(=O)CCC(=O)O [CBK287051] | 129.403%
c1ccc2cc(CCN3CCC(Oc4nccnc4OCCN4CCOCC4)CC3)ccc2c1 [CBK082942T] | 139.969%
COc1cc([N+](=O)[O-])ccc1NC(=O)C1CC(Cl)=CCC1C(=O)O (stereo not drawn) [CBK264956] | 100%
O=C(CNc1n[nH]c(=O)[nH]c1=O)N/N=C/c1ccc(C(=O)O)cc1 [CBK263529] | 100%
CS(=O)(=O)N1CCCc2cc(-c3csc(N4CCOCC4)n3)ccc21 [CBK305022] | 133.161%
COC(=O)c1ccc(NS(=O)(=O)c2cc(Cl)sc2Cl)cc1 [CBK028684] | 98.7188%
CC(C)OC(=O)c1ccc(NC(=O)c2csc3c2CCCC3)cc1 [CBK058649] | 132.723%
CCOC(=O)c1nc(C)sc1-c1ccnn1S(C)(=O)=O [CBK007130] | 147.807%
CC(C)NC(=O)N[C@H]1CCN2C(=O)c3cc(-c4ccccc4)ccc3NC(=O)[C@H]12 [CBK289351] | 111.579%
CC(C)C(c1nnnn1Cc1ccccc1)N1CCOCC1 (stereo not drawn) [CBK028054] | 108.525%
COc1nccnc1N1CCN(CCSC)CC1 [CBK084227] | 130.696%
Cc1csc(C(Cc2cccs2)NC(=O)Cc2c(C)[nH]c(=O)[nH]c2=O)n1 (stereo not drawn) [CBK286345] | 104.761%
Cc1cccc(CSc2nc3ncccc3[nH]2)c1 [CBK287963] | 141.947%
C[C@H](Nc1nc(-c2ccc(-c3ccccc3)cc2)cnc1N)c1ccccc1 [CBK063760] | 146.823%
CC(=O)N1CCC(N2CC[C@H](c3nnc(C(C)(C)C)o3)C2)CC1 [CBK289404] | 123.616%
O=C(CN1CCOCC1)N1CCN(CCc2ccccc2)CC1 [CBK200215] | 106.203%
O=C(O)c1ccccc1SC(C[N+](=O)[O-])c1ccccc1Cl (stereo not drawn) [CBK097071] | 89.4338%
Cc1nc(C2CCCCN2C(=O)COc2ccccc2)ncc1C(=O)Nc1ccc(F)cc1 (stereo not drawn) [CBK285871] | 128.833%

SMILES | % of control remaining
O=S(=O)(Nc1cccc2nonc12)c1ccccc1Br [CBK062577] | 102.509%
O=[N+]([O-])c1cc([N+](=O)[O-])c2cccnc2c1NNc1nncc2ccccc12 [CBK110409] | 40.507%
N#Cc1ccc(CNC2(Cc3cc(CO)on3)COC2)cc1 [CBK289647] | 160.202%
CN(C)C(=O)CN1N=C(C(C)(C)C)Cn2c(cc3ccccc32)C1=O [CBK284210] | 108.241%
CC(SCc1ccccc1)C(=O)NCc1ccnc(OCC(F)(F)F)c1 (stereo not drawn) [CBK298325] | 121.436%
O=C(CCN1CCOCC1)Nc1ccc(Br)cc1C(=O)c1ccccc1 [CBK263165] | 102.314%
N/C(=N\OC(=O)COc1cccc2ccccc12)c1ccccn1 [CBK262999] | 118.629%
CCC(NC1CCc2nc(C)cn2C1)c1ccccc1O (stereo not drawn) [CBK306012] | 179.532%
Cc1c(C(C)N)cnn1-c1ccc(C#N)cc1 (stereo not drawn) [CBK305869] | 109.882%
COc1cccc(C(=O)NCC(c2cccs2)N2CCOCC2)c1 (stereo not drawn) [CBK305075] | 141.123%
COc1cc(NC(=O)C(C)Oc2ccc(Cl)cc2C)c(C(=O)O)cc1OC (stereo not drawn) [CBK266430] | 125.086%
C/C(=N\N=C1/NC(=O)C(CC(=O)O)S1)c1ccc(CC(C)C)cc1 (stereo not drawn) [CBK006661] | 112.033%
CN(C)c1nc(Oc2ccc(OCCOc3ccccc3)nn2)nc(N(C)C)n1 [CBK264976] | 114.41%
CC(C)(Oc1ccc(Cl)cc1)C(=O)Nc1ccc(CN2C(=O)CNC2=O)cc1 [CBK296668] | 120.134%
Cc1sc2nc(SCC(=O)NCCO)nc(N)c2c1C [CBK264423] | 119.8%
CC(Sc1nncs1)C(=O)N1CCCc2ccccc21 (stereo not drawn) [CBK304871] | 104.29%
COc1ccc2[nH]cc(/C=C3\C(=O)Nc4ncccc43)c2c1 [CBK017826] | 115.911%
CCc1c(C)nn(-c2ccccc2Cl)c1-c1ccccc1 [CBK016736] | 148.889%
O=S(=O)(N1CCCCCC1)N1CCNCC1 [CBK269219C] | 139.485%
O=C1NC2(CCN(C(=O)C3CCCC3)CC2)Nc2ccccc21 [CBK283962] | 94.4544%
COc1ccc2[nH]cc(CCNC(=O)c3ccco3)c2c1 [CBK116204] | 98.3933%

SMILES | % of control remaining
CC(C)N1CCC(=NNC(=O)C(O)c2ccccc2)CC1 (stereo not drawn) [CBK019361] | 106.593%
CCOc1ccc(C(C)(CC(N)=O)C(=O)O)cc1 (stereo not drawn) [CBK286778] | 125.618%
O=C1NC(=O)C2(CCN(C(=O)c3csc4c3CCCC4)C2)N1 (stereo not drawn) [CBK305533] | 133.967%
Cc1sc(NC(=O)c2ccc(F)cc2Cl)c(C(=O)NCc2cccnc2)c1C [CBK270319] | 153.774%
O=C(N[C@@H]1CNCCC[C@H]1O)c1ccc(OCc2ccccc2)cc1 [CBK289064] | 117.106%
OCc1cccc(-c2cc(NCc3ccccc3)n3nccc3n2)c1 [CBK037113] | 83.6429%
CN1CCC[C@H]1c1nc(-c2ccnc(NS(C)(=O)=O)c2)no1 [CBK288884] | 139.091%
CCN(C)S(=O)(=O)c1ccc(Cl)c(Cl)c1 [CBK045392] | 143.083%
Cc1nc2c(c(=O)[nH]1)CN(Cc1ccc(F)cc1)CC2 [CBK284009] | 127.262%
COc1ccc(OC)c(NC(=O)CSc2nnc(-c3cccnc3)s2)c1 [CBK269043] | 115.524%
O=C(c1cc(CC2(NCc3ccc(F)cc3)COC2)no1)N1CCCCC1 [CBK289657] | 159.403%
O=S(=O)(NCC(c1ccccc1)N1CCNCC1)c1ccccc1 (stereo not drawn) [CBK262813] | 114.316%
CC(C)Cn1cncc1CNC(=O)Nc1ccc2[nH]nnc2c1 [CBK306549] | 77.5333%
Nc1ncnc2c1nc(Br)n2[C@H]1C[C@@H](O)[C@@H](CO)O1 [CBK201240] | 118.192%
COc1ccc2c(c1)CCN(C(=O)C1CCc3nn(C)c(=O)n3C1)C2 (stereo not drawn) [CBK307613] | 151.244%
O=c1cc(N2CCOCC2)oc2cccc(O)c12 [CBK016536] | 100%
Cc1cc(C)n(CCCC(=O)NCCc2cn3ccccc3n2)n1 [CBK304414] | 137.588%
O=C(NCCOc1ccccc1)N1CCN(c2ccc(F)cc2)CC1 [CBK156416] | 109.136%
